For the assay, the target named is FLAG3-Strep2-tagged methanogenesis marker protein 10 (MmpX) (Methanococcus maripaludis) (UniProt Q6LX00). Kind of assay: affinity purification with mass spectrometry; TAP-tagged (3×FLAG, Twin-Strep) MmpX purified from M. maripaludis; SDS-PAGE (Coomassie), identities of the bands confirmed by mass spectrometry.

Chains of the proteins cited; added tags and fusions are not shown. Lines headed by an entry give the natural chain unless they say otherwise; changes in a name come on top.
UniProt Q6LX00: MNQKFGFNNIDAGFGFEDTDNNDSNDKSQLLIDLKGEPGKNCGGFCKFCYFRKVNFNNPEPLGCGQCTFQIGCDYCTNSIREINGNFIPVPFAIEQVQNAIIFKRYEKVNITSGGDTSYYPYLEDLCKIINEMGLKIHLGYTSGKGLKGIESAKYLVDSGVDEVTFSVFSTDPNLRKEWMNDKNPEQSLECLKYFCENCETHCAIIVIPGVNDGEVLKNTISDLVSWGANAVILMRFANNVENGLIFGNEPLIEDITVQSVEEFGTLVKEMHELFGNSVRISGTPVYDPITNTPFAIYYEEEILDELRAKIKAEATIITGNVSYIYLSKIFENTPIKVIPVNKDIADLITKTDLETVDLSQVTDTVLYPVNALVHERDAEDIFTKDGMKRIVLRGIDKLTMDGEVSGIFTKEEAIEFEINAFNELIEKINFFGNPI
UniProt Q6LY25: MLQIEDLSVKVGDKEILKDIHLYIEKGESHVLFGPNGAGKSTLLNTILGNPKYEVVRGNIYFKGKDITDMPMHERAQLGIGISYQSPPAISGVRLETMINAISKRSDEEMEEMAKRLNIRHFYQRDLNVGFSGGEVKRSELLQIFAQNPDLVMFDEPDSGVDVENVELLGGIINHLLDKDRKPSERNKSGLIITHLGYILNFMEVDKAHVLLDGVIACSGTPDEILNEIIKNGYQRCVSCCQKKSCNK
UniProt Q6LY24: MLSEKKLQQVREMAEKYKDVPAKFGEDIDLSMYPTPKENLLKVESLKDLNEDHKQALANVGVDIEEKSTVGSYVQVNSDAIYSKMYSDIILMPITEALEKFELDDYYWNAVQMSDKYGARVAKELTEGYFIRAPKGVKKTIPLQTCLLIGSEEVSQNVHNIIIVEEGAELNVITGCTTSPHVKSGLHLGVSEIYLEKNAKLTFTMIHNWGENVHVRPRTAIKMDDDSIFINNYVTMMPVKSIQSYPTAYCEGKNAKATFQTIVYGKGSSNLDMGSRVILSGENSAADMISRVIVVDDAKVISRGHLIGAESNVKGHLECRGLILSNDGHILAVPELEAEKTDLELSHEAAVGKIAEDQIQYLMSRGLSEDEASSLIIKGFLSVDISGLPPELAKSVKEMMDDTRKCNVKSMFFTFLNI

No constants are given. Whether binding was seen depends on the method and setting. Binding seen in cells or lysates may run through a third protein. These calls come from enrichment with a bait or labelling near it, and not all partners need be listed.

The values that follow come from article PMC12584684, “A minimal SufB2C2 complex functions as a [4Fe-4S] cluster scaffold in methanogenic archaea” (Microbiology Spectrum, 2025).

Regarding “native Methanococcus maripaludis SufC (from UniProt Q6LY25)”, the binding result is reported as “binds”. The same measure for “Methanococcus maripaludis SufB (from UniProt Q6LY24)”: “binds”.
